The target in assay [1] is T1, BD-GAI (C-terminal domain of GAI, amino acids 148 to 533) (Arabidopsis thaliana) (UniProt Q9LQT8).
T1 sequence: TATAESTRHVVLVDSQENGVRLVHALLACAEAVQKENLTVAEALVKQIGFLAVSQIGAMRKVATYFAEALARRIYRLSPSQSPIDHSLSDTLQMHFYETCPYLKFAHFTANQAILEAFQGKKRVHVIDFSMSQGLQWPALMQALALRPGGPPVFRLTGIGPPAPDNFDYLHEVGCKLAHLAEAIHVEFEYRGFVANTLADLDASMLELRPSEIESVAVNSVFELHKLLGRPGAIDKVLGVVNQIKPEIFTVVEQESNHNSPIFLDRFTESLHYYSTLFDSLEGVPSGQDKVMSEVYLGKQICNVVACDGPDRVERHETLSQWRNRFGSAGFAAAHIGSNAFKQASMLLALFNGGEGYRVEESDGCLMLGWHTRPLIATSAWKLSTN
Kind of assay: two-hybrid; yeast strain AH109 co-transformed with BD-GAI and AD fusions; growth on selective media lacking Leu, Trp, Ade and His.

The chains behind the UniProt entries cited, without tags or fusion partners.
UniProt Q39026: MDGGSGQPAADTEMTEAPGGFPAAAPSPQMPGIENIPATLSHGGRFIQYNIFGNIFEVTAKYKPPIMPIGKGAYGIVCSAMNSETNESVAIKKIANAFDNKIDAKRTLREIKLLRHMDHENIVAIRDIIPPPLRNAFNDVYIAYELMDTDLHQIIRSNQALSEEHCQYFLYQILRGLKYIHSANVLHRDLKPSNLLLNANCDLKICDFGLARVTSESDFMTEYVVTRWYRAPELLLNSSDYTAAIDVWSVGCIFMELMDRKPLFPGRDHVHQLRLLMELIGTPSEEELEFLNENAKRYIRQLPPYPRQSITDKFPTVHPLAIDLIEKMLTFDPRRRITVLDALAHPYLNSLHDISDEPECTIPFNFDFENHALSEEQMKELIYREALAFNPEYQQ

Assay [2] concerns the target GST-tagged MPK6 (Arabidopsis thaliana) (UniProt Q39026). Kind of assay: pull-down; in vitro pull-down with MBP-His-tagged IDD4 and GST-tagged MAPKs; which protein was held is not told; no methods section for it.
The target in assay [3] is T2, SCL3 (SCARECROW-like 3), BiFC fusion (Arabidopsis thaliana) (UniProt Q9LPR8).
T2 sequence: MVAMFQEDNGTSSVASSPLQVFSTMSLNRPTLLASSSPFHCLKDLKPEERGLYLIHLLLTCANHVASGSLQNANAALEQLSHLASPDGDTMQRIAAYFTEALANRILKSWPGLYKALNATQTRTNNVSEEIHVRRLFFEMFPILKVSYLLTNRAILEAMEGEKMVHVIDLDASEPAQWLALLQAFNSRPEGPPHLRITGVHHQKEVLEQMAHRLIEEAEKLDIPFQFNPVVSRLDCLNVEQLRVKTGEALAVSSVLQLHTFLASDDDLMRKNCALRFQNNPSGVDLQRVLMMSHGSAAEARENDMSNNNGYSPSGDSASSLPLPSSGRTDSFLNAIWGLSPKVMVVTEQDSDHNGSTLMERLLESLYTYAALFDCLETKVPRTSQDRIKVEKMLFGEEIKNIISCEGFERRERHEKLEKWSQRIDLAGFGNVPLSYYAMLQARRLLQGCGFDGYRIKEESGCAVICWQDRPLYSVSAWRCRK
Kind of assay: split reporter; BiFC with N- and C-terminal parts of YFP, CaMV-35S promoter, agro-infiltrated Nicotiana benthamiana leaves with P19, confocal microscopy after 3 days; signal in the nucleus.

Assay [4] concerns the target YFP^C-linked MPK6 (Arabidopsis thaliana) (UniProt Q39026). Described as above.

Results are given in words; binding and its absence hold for the method and conditions named. For some assays here: Binding seen in cells or lysates may run through a third protein. Some entries that bind do so weakly or less than the wild type. Tags and fused reporters may be left off the sequences shown.

B1: AD-IDD4 (protein, UniProt Q8GYC1 1-516)
chain: MSSSSYNTSVIPSSSSSAQPFFITSSGTGDNDFNRKDTFMSMIQQPNSSAPPPKKRRNQPGNPNPDAEVVALSPKTLMATNRFICDVCNKGFQREQNLQLHRRGHNLPWKLKQKSTKEVKRKVYLCPEPTCVHHDPSRALGDLTGIKKHYYRKHGEKKWKCEKCSKRYAVQSDWKAHSKTCGTKEYRCDCGTIFSRRDSYITHRAFCDALIQETARNPTVSFTSMTAASSGVGSGGIYGRLGGGSALSHHHLSDHPNFGFNPLVGYNLNIASSDNRRDFIPQSSNPNFLIQSASSQGMLNTTPNNNNQSFMNQHGLIQFDPVDNINLKSSGTNNSFFNLGFFQENTKNSETSLPSLYSTDVLVHHREENLNAGSNVSATALLQKATQMGSVTSNDPSALFRGLASSSNSSSVIANHFGGGRIMENDNNGNLQGLMNSLAAVNGGGGSGGSIFDVQFGDNGNMSGSDKLTLDFLGVGGMVRNVNRGGGGGGRGSARGGVSLDGEAKFPEQNYPFGRG
Consider B1, for which the binding entry in assay [1] was “binds”.

B2: AD-IDD4-DD (protein, UniProt Q8GYC1 1-516)
chain: MSSSSYNTSVIPSSSSSAQPFFITSSGTGDNDFNRKDTFMSMIQQPNSSAPPPKKRRNQPGNPNPDAEVVALDPKTLMATNRFICDVCNKGFQREQNLQLHRRGHNLPWKLKQKSTKEVKRKVYLCPEPDCVHHDPSRALGDLTGIKKHYYRKHGEKKWKCEKCSKRYAVQSDWKAHSKTCGTKEYRCDCGTIFSRRDSYITHRAFCDALIQETARNPTVSFTSMTAASSGVGSGGIYGRLGGGSALSHHHLSDHPNFGFNPLVGYNLNIASSDNRRDFIPQSSNPNFLIQSASSQGMLNTTPNNNNQSFMNQHGLIQFDPVDNINLKSSGTNNSFFNLGFFQENTKNSETSLPSLYSTDVLVHHREENLNAGSNVSATALLQKATQMGSVTSNDPSALFRGLASSSNSSSVIANHFGGGRIMENDNNGNLQGLMNSLAAVNGGGGSGGSIFDVQFGDNGNMSGSDKLTLDFLGVGGMVRNVNRGGGGGGRGSARGGVSLDGEAKFPEQNYPFGRG
As for B2, in assay [1], the binding result was “binds”.

B3: AD-IDD4-AA (protein, UniProt Q8GYC1 1-516)
chain: MSSSSYNTSVIPSSSSSAQPFFITSSGTGDNDFNRKDTFMSMIQQPNSSAPPPKKRRNQPGNPNPDAEVVALAPKTLMATNRFICDVCNKGFQREQNLQLHRRGHNLPWKLKQKSTKEVKRKVYLCPEPACVHHDPSRALGDLTGIKKHYYRKHGEKKWKCEKCSKRYAVQSDWKAHSKTCGTKEYRCDCGTIFSRRDSYITHRAFCDALIQETARNPTVSFTSMTAASSGVGSGGIYGRLGGGSALSHHHLSDHPNFGFNPLVGYNLNIASSDNRRDFIPQSSNPNFLIQSASSQGMLNTTPNNNNQSFMNQHGLIQFDPVDNINLKSSGTNNSFFNLGFFQENTKNSETSLPSLYSTDVLVHHREENLNAGSNVSATALLQKATQMGSVTSNDPSALFRGLASSSNSSSVIANHFGGGRIMENDNNGNLQGLMNSLAAVNGGGGSGGSIFDVQFGDNGNMSGSDKLTLDFLGVGGMVRNVNRGGGGGGRGSARGGVSLDGEAKFPEQNYPFGRG
On to B3, for which, in assay [1], the binding result is reported as “binds”.

B4: MBP-His-tagged IDD4 (…-DOMAIN 4 / IMPERIAL EAGLE) (protein, UniProt Q8GYC1 71-516)
chain: ALSPKTLMATNRFICDVCNKGFQREQNLQLHRRGHNLPWKLKQKSTKEVKRKVYLCPEPTCVHHDPSRALGDLTGIKKHYYRKHGEKKWKCEKCSKRYAVQSDWKAHSKTCGTKEYRCDCGTIFSRRDSYITHRAFCDALIQETARNPTVSFTSMTAASSGVGSGGIYGRLGGGSALSHHHLSDHPNFGFNPLVGYNLNIASSDNRRDFIPQSSNPNFLIQSASSQGMLNTTPNNNNQSFMNQHGLIQFDPVDNINLKSSGTNNSFFNLGFFQENTKNSETSLPSLYSTDVLVHHREENLNAGSNVSATALLQKATQMGSVTSNDPSALFRGLASSSNSSSVIANHFGGGRIMENDNNGNLQGLMNSLAAVNGGGGSGGSIFDVQFGDNGNMSGSDKLTLDFLGVGGMVRNVNRGGGGGGRGSARGGVSLDGEAKFPEQNYPFGRG
As to B4, the binding result in assay [2] is “binds”.

B5: IDD4-DD (phospho-mimicking IDD4 S-73-D, T-130-D), BiFC fusion (protein, UniProt Q8GYC1 71-516)
chain: ALDPKTLMATNRFICDVCNKGFQREQNLQLHRRGHNLPWKLKQKSTKEVKRKVYLCPEPDCVHHDPSRALGDLTGIKKHYYRKHGEKKWKCEKCSKRYAVQSDWKAHSKTCGTKEYRCDCGTIFSRRDSYITHRAFCDALIQETARNPTVSFTSMTAASSGVGSGGIYGRLGGGSALSHHHLSDHPNFGFNPLVGYNLNIASSDNRRDFIPQSSNPNFLIQSASSQGMLNTTPNNNNQSFMNQHGLIQFDPVDNINLKSSGTNNSFFNLGFFQENTKNSETSLPSLYSTDVLVHHREENLNAGSNVSATALLQKATQMGSVTSNDPSALFRGLASSSNSSSVIANHFGGGRIMENDNNGNLQGLMNSLAAVNGGGGSGGSIFDVQFGDNGNMSGSDKLTLDFLGVGGMVRNVNRGGGGGGRGSARGGVSLDGEAKFPEQNYPFGRG
Regarding B5, the binding entry in assay [3] is on record as “binds”.

B6: YFP^N-IDD4 (protein, UniProt Q8GYC1 71-516)
chain: ALSPKTLMATNRFICDVCNKGFQREQNLQLHRRGHNLPWKLKQKSTKEVKRKVYLCPEPTCVHHDPSRALGDLTGIKKHYYRKHGEKKWKCEKCSKRYAVQSDWKAHSKTCGTKEYRCDCGTIFSRRDSYITHRAFCDALIQETARNPTVSFTSMTAASSGVGSGGIYGRLGGGSALSHHHLSDHPNFGFNPLVGYNLNIASSDNRRDFIPQSSNPNFLIQSASSQGMLNTTPNNNNQSFMNQHGLIQFDPVDNINLKSSGTNNSFFNLGFFQENTKNSETSLPSLYSTDVLVHHREENLNAGSNVSATALLQKATQMGSVTSNDPSALFRGLASSSNSSSVIANHFGGGRIMENDNNGNLQGLMNSLAAVNGGGGSGGSIFDVQFGDNGNMSGSDKLTLDFLGVGGMVRNVNRGGGGGGRGSARGGVSLDGEAKFPEQNYPFGRG
For B6, the binding entry in assay [3] and in assay [4] was “binds” in each case.

B7: IDD4-AA (phospho-dead IDD4 S-73-A, T-130-A), BiFC fusion (protein, UniProt Q8GYC1 71-516)
chain: ALAPKTLMATNRFICDVCNKGFQREQNLQLHRRGHNLPWKLKQKSTKEVKRKVYLCPEPACVHHDPSRALGDLTGIKKHYYRKHGEKKWKCEKCSKRYAVQSDWKAHSKTCGTKEYRCDCGTIFSRRDSYITHRAFCDALIQETARNPTVSFTSMTAASSGVGSGGIYGRLGGGSALSHHHLSDHPNFGFNPLVGYNLNIASSDNRRDFIPQSSNPNFLIQSASSQGMLNTTPNNNNQSFMNQHGLIQFDPVDNINLKSSGTNNSFFNLGFFQENTKNSETSLPSLYSTDVLVHHREENLNAGSNVSATALLQKATQMGSVTSNDPSALFRGLASSSNSSSVIANHFGGGRIMENDNNGNLQGLMNSLAAVNGGGGSGGSIFDVQFGDNGNMSGSDKLTLDFLGVGGMVRNVNRGGGGGGRGSARGGVSLDGEAKFPEQNYPFGRG
For B7, in assay [3], the binding result was “binds”.

Values taken from article PMC6345439, “INDETERMINATE-DOMAIN 4 (IDD4) coordinates immune responses with plant-growth in Arabidopsis thaliana”.
